This is one part of the list. The main result of the screen is listed elsewhere. These columns were measured beside it and carry no call. Most of these compounds were active or inconclusive in the main read-out, so they are no random draw. The note in brackets gives the kind of curve behind each potency; many fits are weak.
Assay: qHTS Assay to Find Inhibitors of Chronic Active B-Cell Receptor Signaling
Settings: ABC-DLBCL IkBa-CBG/CBR reporter, luminescence ratio (green luciferase fused to IkBa over red control in TMD8 lymphoma cells), 4 h
Outline: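 Doxycycline induced both beetle luciferases in TMD8 lymphoma cells; IKK-driven degradation limits the IkappaBalpha-fused green signal, while red luminescence normalises for cell number and nonspecific effects. Compounds tested up to 46 uM, 4 hrs.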

[1] = measured here: CBR red luminescence, cell number
[2] = measured here: IkBa-CBG green luminescence

Compound | AC50 [1] | AC50 [2]
CCNCCNC(=O)c1c(O)c2cccc3c2n(c1=O)CCC3 | 11.2 µM [falling, single point] | 
CC(Sc1nc(O)c(-c2ccccc2)c(=O)[nH]1)C(=O)Nc1ccc(Cl)cc1 (stereo not drawn) | 7.08 µM [falling, full curve, poor fit] | 
c1ccc(-c2c(-c3ccccc3)n(Cc3ccco3)c3ncnc(NCCCn4ccnc4)c23)cc1 | 18.4 µM [falling, single point] | 
CCOC(=O)N1CCC(NS(=O)(=O)c2cc3c(cc2Cl)NC(=O)CO3)CC1 | 2.91 µM [rising, partial curve] | 
O=C(NC1CCCCCC1)c1cccc(N2CCCC2=O)c1 | 2.31 µM [falling, partial curve, poor fit] | 
COc1ccccc1CNc1ncccc1[N+](=O)[O-] | 0.112 µM [rising, full curve, poor fit] | 
COc1ccc(NC(C)=O)cc1S(=O)(=O)Nc1ccc(OCc2ccccc2)cc1 | 35.5 µM [falling, single point] | 
O=C(Nc1cccc(Cl)c1)C1COc2ccccc2O1 (stereo not drawn) | 0.891 µM [rising, partial curve, poor fit] | 
COCCCNC(=O)/C(C#N)=C/c1cccc(NC(=O)c2ccccc2Cl)c1 | 8.2 µM [falling, partial curve, poor fit] | 29.1 µM [falling, single point]
COc1ccc(CNC(=O)C(c2ccncc2)N(C(=O)Cc2cccs2)c2ccc(C)cc2)cc1 (stereo not drawn) | 25.9 µM [falling, partial curve, poor fit] | 
COc1ccc(NC(=O)CCOc2ccc(C)cc2)cc1S(=O)(=O)N1CCCCC1 | 6.51 µM [rising, single point] | 
Cc1cc(C)n(-c2ccc(Cl)c(C(=O)OCC(N)=O)n2)n1 | 0.231 µM [falling, full curve, poor fit] | 
CCCOc1ccc(-c2nc(-c3ccc(N)cc3)cs2)cc1 | 14.1 µM [rising, partial curve] | 
CC1=C(C(=O)Nc2ccccc2)C(c2ccc(C(=O)O)cc2)n2nc(SCC(=O)c3ccc(C)cc3)nc2N1 (stereo not drawn) | 35.5 µM [falling, single point] | 
O=c1c2ccccc2ncn1CCCCOc1ccccc1F | 0.0891 µM [rising, full curve, poor fit] | 
Cc1ccc2nc(SCC(=O)Nc3cc(C(F)(F)F)ccc3N3CCOCC3)[nH]c2c1 | 29.1 µM [rising, single point] | 11.6 µM [falling, partial curve]
C=CCSc1nc2sc(C)c(C)c2c(=O)n1N | 14.6 µM [rising, partial curve] | 
CS(=O)(=O)c1ccccc1COC(=O)Nc1ccc(Cl)cc1 | 11.2 µM [falling, partial curve, poor fit] | 
COc1ccc(C(OCC(O)CN(C)C2CCCCC2)c2ccc(OC)cc2)cc1 (stereo not drawn) | 15.8 µM [falling, single point] | 
NCCCCCc1nnc(SC/C=C/c2ccccc2)o1 | 0.651 µM [falling, partial curve, poor fit] | 
CC1=CC(C)(C)N(S(=O)(=O)c2ccc(F)cc2)c2ccc(C)cc21 | 20.6 µM [rising, single point] | 25.9 µM [falling, single point]
Cc1ccc(-n2ncc3c(NNC(=O)c4ccccc4C)ncnc32)cc1 | 8.91 µM [falling, partial curve] | 

Compound | AC50 [1] | AC50 [2]
O=C(N/N=C/c1ccccc1O)c1ccc2c(c1)OCO2 | 10 µM [falling, partial curve] | 
Cc1ccc(NC(=O)c2cccs2)cc1S(=O)(=O)Nc1cccc(Cl)c1 | 25.9 µM [falling, single point] | 
O=C(CCl)N=c1sccn1Cc1ccc(Cl)cc1Cl | 7.08 µM [falling, partial curve] | 
O=C(NCc1nc(-c2ccccc2)no1)c1cccs1 | 1.41 µM [rising, full curve, poor fit] | 
O=C(NCc1cccc(F)c1)c1cccc2c1C(=O)c1ccc(Cl)cc1S2(=O)=O | 0.58 µM [rising, full curve, poor fit] | 
N#CC1(C#N)C(C(N)=O)C1c1ccccc1 (stereo not drawn) | 5.8 µM [rising, partial curve, poor fit] | 
C=C(C)Cn1c(N(CCO)Cc2ccccc2)nc2c1c(=O)[nH]c(=O)n2C | 18.4 µM [rising, partial curve, poor fit] | 
ClCc1nnc(-c2ccccc2)o1 | 23.1 µM [falling, partial curve] | 
Cn1cc(CCC(=O)N2CCCC(C(=O)c3ccc(C(C)(C)C)cc3)C2)cn1 (stereo not drawn) | 35.5 µM [rising, partial curve, poor fit] | 
CCc1nnc(N2C(=N)SCC2=O)s1 | 1 µM [rising, full curve, poor fit] | 
Cc1nc2c(C#N)c(-c3ccc(Cl)cc3)ccn2n1 | 20 µM [rising, partial curve, poor fit] | 
O=S(=O)(c1cccc2c(S(=O)(=O)N3CCCC3)cccc12)N1CCCC1 | 3.66 µM [falling, partial curve, poor fit] | 
CCC1=NN2C(=N)/C(=C\c3cccn3-c3ccc(C)c(C)c3)C(=O)N=C2S1 | 15.8 µM [rising, partial curve, poor fit] | 
CC1CCc2c(sc(NC(=O)c3cccn3C)c2C(N)=O)C1 (stereo not drawn) | 23.1 µM [falling, single point] | 
CN(C)S(=O)(=O)c1ccc(NC(=S)NC(=O)Cc2ccccc2)cc1 | 3.16 µM [falling, partial curve, poor fit] | 
CN(Cc1ccccc1)C(=O)COC(=O)c1cc(=O)[nH]c2ccccc12 | 23.1 µM [rising, partial curve, poor fit] | 
Cc1occc1C(=O)O/N=C(\N)c1ccc(Cl)cc1 | 7.94 µM [falling, partial curve, poor fit] | 
Nc1cc(=O)[nH]c(SCC(=O)N2CCc3ccccc3C2)n1 | 35.5 µM [rising, single point] | 
Nc1c(-c2ccc(Cl)cc2)nnn1-c1ccccc1 | 18.4 µM [falling, partial curve, poor fit] | 
CC(C)(C)c1ccc(/C=N/NC(=O)C2CCCC2)cc1 | 15.8 µM [rising, partial curve, poor fit] | 
O=C(CS(=O)(=O)c1ccccc1)Nc1nnc(C(F)(F)F)s1 | 12.6 µM [falling, single point] | 
Cc1nc2ccc(NC(=O)c3ccccc3)cc2s1 | 11.2 µM [falling, partial curve, poor fit] | 

As entered above:
Value for ClCc1nnc(-c2ccccc2)o1 under AC50 [1]: 23.1 µM [falling, partial curve]
Value for Cc1ccc2nc(SCC(=O)Nc3cc(C(F)(F)F)ccc3N3CCOCC3)[nH]c2c1 under AC50 [2]: 11.6 µM [falling, partial curve]
Value for COc1ccc(CNC(=O)C(c2ccncc2)N(C(=O)Cc2cccs2)c2ccc(C)cc2)cc1 (stereo not drawn) under AC50 [1]: 25.9 µM [falling, partial curve, poor fit]

Continuation:

Compound | AC50 [1] | AC50 [2]
CCCn1c(COc2ccccc2)nc2ccccc21 | 17.8 µM [falling, single point] | 
CCc1cc2c(=O)[nH]c(-c3ccncc3)nc2s1 | 13 µM [falling, partial curve, poor fit] | 
Cc1c(C(=O)NCCSCc2cccc(C(F)(F)F)c2)cnn1-c1ccc(Cl)cc1 | 35.5 µM [falling, single point] | 
CCCN(CCC)Cc1c(C(=O)N/N=C/c2c[nH]c3ccccc23)nnn1-c1nonc1N | 35.5 µM [falling, single point] | 
O=C(Nc1ccc(Br)cc1)c1cc2ccccn2n1 | 14.1 µM [falling, partial curve] | 
O=C(CSc1ncnc2scc(-c3ccccc3)c12)NCc1ccc2c(c1)OCO2 | 29.1 µM [falling, partial curve, poor fit] | 
O=C(Nc1nnc(C2=COCCO2)o1)c1ccc(F)cc1 | 28.2 µM [falling, partial curve] | 22.4 µM [falling, single point]
COc1ccccc1C(=O)NCCc1nc2ccccc2[nH]1 | 31.6 µM [falling, single point] | 
Cc1ccc(-c2[nH]c(=O)n3ccncc23)s1 | 8.91 µM [rising, partial curve, poor fit] | 
COc1ccc(-c2cn[nH]c2-c2ccc(OCc3ccc(F)cc3)cc2O)cc1OC | 20 µM [falling, single point] | 
CC(C)(C)c1ccc(CN2C3=NCCCN3c3ccccc32)cc1 | 25.9 µM [falling, single point] | 
COc1ccc(NC(=O)Cn2c(=O)n(-c3ccc(Cl)cc3)c(=O)c3c(C)c(C(=O)N(C)C)sc32)cc1Cl | 3.98 µM [rising, single point] | 
Cc1cc(C(=O)Nc2ccon2)cs1 | 0.92 µM [falling, full curve, poor fit] | 
c1ccc2nc(-c3nc4ccccc4o3)ccc2c1 | 0.326 µM [falling, full curve, poor fit] | 
O=C(NC1CC(=O)N(c2ccccc2)C1)C1CCCC1 (stereo not drawn) | 35.5 µM [rising, partial curve, poor fit] | 
Cc1nc(-c2ccccc2)nc2[nH]c(C(C)C)cc(=O)c12 | 1.46 µM [falling, full curve, poor fit] | 
O=C(Nc1cc2c(cc1Br)OCCO2)c1ccco1 | 0.092 µM [rising, full curve, poor fit] | 
O=c1c2ccccc2nc2n1C(CSCc1cccc(C(F)(F)F)c1)CS2 (stereo not drawn) | 3.16 µM [falling, full curve, poor fit] | 
COc1ccc(Cl)cc1N(CC(=O)Nc1ccccc1C(=O)NCc1ccco1)S(C)(=O)=O | 16.4 µM [falling, partial curve, poor fit] | 
CC(=O)Nc1cccc(OCc2cnc(Cl)s2)c1 | 22.4 µM [rising, single point] | 

Reference: PubChem BioAssay AID493014 (National Center for Advancing Translational Sciences (NCATS), 2011)
